Literature values as cited in patent US20210079079A1, “SYSTEMS AND METHODS FOR LOCAL MODULATION OF WNT SIGNALING” (Ortheus, Inc., priority 2018, published 2021).
For at least one compound, name, drawing or mass did not settle the structure.

Test system: androgenic alopecia
Settings: after 3-6 months of minoxidil therapy, topical; cited from earlier work

For `Nc1cc(N2CCCCC2)nc(N)[n+]1[O-]` [minoxidil], the “men who experience hair regrowth” value is listed as “Around 40%”.
